Experimental data reported in patent US20210318322A1.
Residue numbers refer to the chain shown, from its start. Results are given in words; binding and its absence hold for the method and conditions named. Some results given as binding are weak or reduced against the parent protein; the word gives no strength.

B1: VSTB95 (antibody, human IgG1, kappa, V domains shown)
VH: EVQLVESGGGLVQPGGSLRLSCAASGFTFRNYGMSWVRQAPGKGLEWVASIISGGSYTYYPDSVKGRFTISRDNAKNSLYLQMNSLRAEDTAVYYCARIYDHDGDYYAMDYWGQGTTVTVSS
VL: DIVMTQSPLSLPVTPGEPASISCRSSQSIVHSNGNTYLEWYLQKPGQSPQLLIYKVSNRFSGVPDRFSGSGSGTDFTLKISRVEAEDVGVYYCFQGSHVPWTFGQGTKLEIKR
B2: VSTB50 (antibody, human IgG1, kappa, V domains shown)
VH: QVQLVQSGSELKKPGASVKVSCKASGYTFTNYGLNWVRQAPGQGLEWMGWINPYTGEPTYADDFKGRFVFSLDTSVSTAYLQICSLKAEDTAVYYCAREGYGNYIFPYWGQGTLVTVSS
VL: DIVMTQTPLSLSVTPGQPASISCRASESVDTYANSLMHWYLQKPGQPPQLLIYRASNLESGVPDRFSGSGSGTDFTLKISRVEAEDVGVYYCQQTNEDPRTFGQGTKLEIKR
B3: VSTB53 (antibody, human IgG1, kappa, V domains shown)
VH: QVQLVQSGAEVKKPGASVKVSCKASGYTFTHYTIHWVRQAPGQGLEWMGYIIPSSGYSEYNQKFKDRVTMTRDTSTSTVYMELSSLRSEDTAVYYCARGAYDDYYDYYAMDYWGQGTLVTVSS
VL: B1 VL with S28T, G96A
B4: VSTB60 (antibody, human IgG1, kappa, V domains shown)
VH: B2 VH with L34M, N35T, P53T, P58S, E99D, G100Y, N103I, I105V, F106S, P107A
VL: B2 VL with T31N, L36F, P47S, T95S, N96H, R100Y

How the values were obtained:
[1] = molecular target: cynomolgus VISTA expressed on K562 cells (cynomolgus); assay: FACS
[2] = molecular target: cynomolgus VISTA extracellular domain (cynomolgus); assay: ELISA

binding [1] | binding [2] | Binder
binds | binds | B1
binds | binds | B2
binds | binds | B3
binds | binds | B4
